# Measurements from paper doi:10.1101/2023.07.11.548601.
# These are yes or no findings as the source states them, for the method shown. In cells and extracts the contact can be indirect. A yes stands for co-enrichment or nearness to the bait. Other partners may have been found. Where a sequence is shown, tags or fusion partners need not be part of it.
# T1: biotinylated Avi-Ozz (recombinant Ozz fused to an Avi-tag) (UniProt Q9D0S4)
# T1 sequence (chain, biotin on the Avi-tag (biotinylated by the coexpressed bacterial ligase BirA)): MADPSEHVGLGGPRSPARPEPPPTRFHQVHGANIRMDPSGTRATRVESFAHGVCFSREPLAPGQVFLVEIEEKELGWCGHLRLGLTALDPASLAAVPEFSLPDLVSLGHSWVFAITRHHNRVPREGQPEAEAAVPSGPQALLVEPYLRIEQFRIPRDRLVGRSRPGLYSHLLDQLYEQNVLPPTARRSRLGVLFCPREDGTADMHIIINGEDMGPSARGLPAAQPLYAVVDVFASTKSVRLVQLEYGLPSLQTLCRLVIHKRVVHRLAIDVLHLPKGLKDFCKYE
# Target: T1, biotinylated Avi-Ozz (recombinant Ozz fused to an Avi-tag)
# Assay: affinity purification with mass spectrometry
binder,measurement,value
"Slc25A4 (protein, UniProt P48962 1-298) MGDQALSFLKDFLAGGIAAAVSKTAVAPIERVKLLLQVQHASKQISAEKQYKGIIDCVVRIPKEQGFLSFWRGNLANVIRYFPTQALNFAFKDKYKQIFLGGVDRHKQFWRYFAGNLASGGAAGATSLCFVYPLDFARTRLAADVGKGSSQREFNGLGDCLTKIFKSDGLKGLYQGFSVSVQGIIIYRAAYFGVYDTAKGMLPDPKNVHIIVSWMIAQSVTAVAGLVSYPFDTVRRRMMMQSGRKGADIMYTGTLDCWRKIAKDEGANAFFKGAWSNVLRGMGGAFVLVLYDEIKKYV",binding,binds
